# Measurements: patent publication US20050197292A1, “Compositions and methods for treating T-cell mediated pathological conditions” (priority 2004, published 2005)
# At least one structure is not confirmed: it was looked up by name or label, or the drawing left a doubt.
# Assays:
# [1] = tested on: Antigen induced arthritis in mice (knee joint); test: Antigen induced arthritis (mBSA) of the knee joint, histological scoring; assay type: in vivo, mouse
# [2] = tested on: Antigen induced foot pad inflammation in mice; test: Antigen (mBSA) induced foot pad inflammation: ankle swelling and histology; assay type: in vivo, mouse; details: treatment during sensitization; Dexamethasone 0.1 mg/kg po days (-)1-9
# [3] = Dexamethasone po days 13-18, 0.2 and 0.3 mg/kg
structure (smiles),measurement,setting,value
C[C@@H]1C[C@H]2[C@@H]3CCC4=CC(=O)C=C[C@]4(C)[C@@]3(F)[C@@H](O)C[C@]2(C)[C@@]1(O)C(=O)CO [Dexamethasone],cartilage damage,[1]; [3],reducing cartilage damage
same,"knee inflammation, pannus formation and bone resorption",[1]; [3],decreased these parameters significantly
same,inflammation in the knee,[1]; treatment at sensitization,did not significantly reduce
same,pannus and bone damage,"[1]; treatment at sensitization, Dexamethasone 0.1 mg/kg po, p<0.05, data not shown","slightly, but significantly, reduce"
same,histological analysis of footpad inflammation,[2],did not significantly reduce
